From paper PMC10763294
These are yes or no findings as the source states them, for the method shown. Binding seen in cells or lysates may run through a third protein. Some binding calls cover weakened binding; strength is not graded here.

Amino acid sequences for entries named in this document (tags omitted).
UniProt Q8N9U0: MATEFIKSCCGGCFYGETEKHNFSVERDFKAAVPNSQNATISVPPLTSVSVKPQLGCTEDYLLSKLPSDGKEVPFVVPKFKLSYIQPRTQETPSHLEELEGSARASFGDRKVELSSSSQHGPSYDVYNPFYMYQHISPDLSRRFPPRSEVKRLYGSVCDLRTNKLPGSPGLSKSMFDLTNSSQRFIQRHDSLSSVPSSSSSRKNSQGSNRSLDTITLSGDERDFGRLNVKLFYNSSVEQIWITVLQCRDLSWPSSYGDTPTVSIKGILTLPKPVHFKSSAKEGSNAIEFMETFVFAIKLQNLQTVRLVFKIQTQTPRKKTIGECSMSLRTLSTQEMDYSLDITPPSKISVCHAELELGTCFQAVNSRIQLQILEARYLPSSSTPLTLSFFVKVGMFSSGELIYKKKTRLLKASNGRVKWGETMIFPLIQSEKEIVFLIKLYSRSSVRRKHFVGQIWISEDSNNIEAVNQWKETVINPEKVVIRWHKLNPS
UniProt P49327: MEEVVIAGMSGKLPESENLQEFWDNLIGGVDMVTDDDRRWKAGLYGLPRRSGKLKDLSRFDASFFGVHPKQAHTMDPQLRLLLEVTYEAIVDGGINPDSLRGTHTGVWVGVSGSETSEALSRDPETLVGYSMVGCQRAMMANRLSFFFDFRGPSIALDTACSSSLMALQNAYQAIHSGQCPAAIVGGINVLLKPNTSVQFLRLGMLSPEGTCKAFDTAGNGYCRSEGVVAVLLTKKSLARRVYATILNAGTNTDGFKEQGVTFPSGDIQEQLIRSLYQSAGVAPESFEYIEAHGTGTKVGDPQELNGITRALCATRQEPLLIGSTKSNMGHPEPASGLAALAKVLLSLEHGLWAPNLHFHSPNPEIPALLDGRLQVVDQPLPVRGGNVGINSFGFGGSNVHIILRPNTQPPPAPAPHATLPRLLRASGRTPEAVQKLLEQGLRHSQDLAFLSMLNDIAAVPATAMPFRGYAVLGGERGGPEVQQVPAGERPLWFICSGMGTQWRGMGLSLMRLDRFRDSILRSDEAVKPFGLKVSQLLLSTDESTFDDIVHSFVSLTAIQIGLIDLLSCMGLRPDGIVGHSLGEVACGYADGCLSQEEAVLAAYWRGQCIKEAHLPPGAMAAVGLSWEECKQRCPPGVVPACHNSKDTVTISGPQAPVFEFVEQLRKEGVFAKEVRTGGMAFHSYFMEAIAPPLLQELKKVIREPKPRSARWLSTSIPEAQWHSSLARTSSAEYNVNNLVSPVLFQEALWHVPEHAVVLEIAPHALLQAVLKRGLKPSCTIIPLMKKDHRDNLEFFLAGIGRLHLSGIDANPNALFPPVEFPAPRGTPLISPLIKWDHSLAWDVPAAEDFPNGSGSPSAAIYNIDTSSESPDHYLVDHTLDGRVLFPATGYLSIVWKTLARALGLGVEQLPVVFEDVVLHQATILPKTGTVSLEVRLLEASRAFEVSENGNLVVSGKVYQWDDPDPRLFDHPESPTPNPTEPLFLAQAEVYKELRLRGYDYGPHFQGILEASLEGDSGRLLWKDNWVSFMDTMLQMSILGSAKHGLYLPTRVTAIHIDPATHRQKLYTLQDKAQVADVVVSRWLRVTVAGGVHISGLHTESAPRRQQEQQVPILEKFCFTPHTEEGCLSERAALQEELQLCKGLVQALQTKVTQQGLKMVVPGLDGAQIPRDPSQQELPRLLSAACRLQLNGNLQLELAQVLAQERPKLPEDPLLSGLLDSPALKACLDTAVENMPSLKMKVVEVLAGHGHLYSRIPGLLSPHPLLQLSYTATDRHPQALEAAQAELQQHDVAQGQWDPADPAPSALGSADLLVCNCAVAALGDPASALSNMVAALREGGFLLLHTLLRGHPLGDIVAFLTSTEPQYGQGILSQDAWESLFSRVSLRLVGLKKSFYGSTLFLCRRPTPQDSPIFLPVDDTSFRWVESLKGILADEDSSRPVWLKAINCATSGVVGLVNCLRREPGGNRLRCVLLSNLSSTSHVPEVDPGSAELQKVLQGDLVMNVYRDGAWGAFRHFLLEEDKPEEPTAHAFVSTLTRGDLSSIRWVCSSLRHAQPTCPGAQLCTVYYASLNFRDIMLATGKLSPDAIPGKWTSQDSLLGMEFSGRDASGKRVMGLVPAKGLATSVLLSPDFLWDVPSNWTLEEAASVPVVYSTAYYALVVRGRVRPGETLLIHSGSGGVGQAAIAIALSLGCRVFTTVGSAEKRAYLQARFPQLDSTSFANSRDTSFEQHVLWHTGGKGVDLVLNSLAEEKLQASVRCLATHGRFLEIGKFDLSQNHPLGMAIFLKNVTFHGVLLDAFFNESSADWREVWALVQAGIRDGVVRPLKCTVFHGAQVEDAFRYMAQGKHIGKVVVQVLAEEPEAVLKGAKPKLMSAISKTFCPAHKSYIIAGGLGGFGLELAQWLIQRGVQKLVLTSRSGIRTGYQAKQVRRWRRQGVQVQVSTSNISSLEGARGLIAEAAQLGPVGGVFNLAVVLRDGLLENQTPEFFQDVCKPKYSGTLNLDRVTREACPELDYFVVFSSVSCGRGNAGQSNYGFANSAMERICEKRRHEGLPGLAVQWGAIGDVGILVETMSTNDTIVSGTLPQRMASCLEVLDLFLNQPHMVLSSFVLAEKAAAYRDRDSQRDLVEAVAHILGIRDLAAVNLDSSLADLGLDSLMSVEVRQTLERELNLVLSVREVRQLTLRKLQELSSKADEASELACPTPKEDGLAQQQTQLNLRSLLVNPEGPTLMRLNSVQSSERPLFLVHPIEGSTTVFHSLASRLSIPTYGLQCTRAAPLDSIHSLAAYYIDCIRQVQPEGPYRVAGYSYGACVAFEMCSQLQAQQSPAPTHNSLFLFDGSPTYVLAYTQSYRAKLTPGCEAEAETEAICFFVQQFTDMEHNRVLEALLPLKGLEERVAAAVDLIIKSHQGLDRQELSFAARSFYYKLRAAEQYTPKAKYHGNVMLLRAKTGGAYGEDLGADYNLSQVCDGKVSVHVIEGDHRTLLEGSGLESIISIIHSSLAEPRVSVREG
UniProt Q14974: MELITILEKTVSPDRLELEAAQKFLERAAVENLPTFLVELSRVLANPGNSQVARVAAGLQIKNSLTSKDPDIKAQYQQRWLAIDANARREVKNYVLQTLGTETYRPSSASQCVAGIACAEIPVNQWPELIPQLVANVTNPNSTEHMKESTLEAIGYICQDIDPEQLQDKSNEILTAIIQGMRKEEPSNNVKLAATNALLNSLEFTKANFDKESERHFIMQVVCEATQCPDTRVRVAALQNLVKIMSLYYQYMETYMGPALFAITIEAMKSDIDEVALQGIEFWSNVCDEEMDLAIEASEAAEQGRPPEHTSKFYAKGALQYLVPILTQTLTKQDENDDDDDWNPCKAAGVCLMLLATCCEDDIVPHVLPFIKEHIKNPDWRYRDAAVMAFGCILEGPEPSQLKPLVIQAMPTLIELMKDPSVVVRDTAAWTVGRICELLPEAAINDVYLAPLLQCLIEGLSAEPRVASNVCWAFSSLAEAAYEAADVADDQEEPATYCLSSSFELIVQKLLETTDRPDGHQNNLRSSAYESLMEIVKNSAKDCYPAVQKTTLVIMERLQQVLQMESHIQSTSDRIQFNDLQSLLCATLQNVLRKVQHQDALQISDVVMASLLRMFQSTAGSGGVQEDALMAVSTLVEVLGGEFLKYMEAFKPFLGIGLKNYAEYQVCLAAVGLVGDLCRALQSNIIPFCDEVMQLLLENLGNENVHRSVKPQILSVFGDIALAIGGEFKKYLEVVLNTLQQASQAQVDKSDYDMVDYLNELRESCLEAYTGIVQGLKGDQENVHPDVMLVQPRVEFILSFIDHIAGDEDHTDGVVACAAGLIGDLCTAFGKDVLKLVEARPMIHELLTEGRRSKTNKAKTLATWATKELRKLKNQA
UniProt P19474: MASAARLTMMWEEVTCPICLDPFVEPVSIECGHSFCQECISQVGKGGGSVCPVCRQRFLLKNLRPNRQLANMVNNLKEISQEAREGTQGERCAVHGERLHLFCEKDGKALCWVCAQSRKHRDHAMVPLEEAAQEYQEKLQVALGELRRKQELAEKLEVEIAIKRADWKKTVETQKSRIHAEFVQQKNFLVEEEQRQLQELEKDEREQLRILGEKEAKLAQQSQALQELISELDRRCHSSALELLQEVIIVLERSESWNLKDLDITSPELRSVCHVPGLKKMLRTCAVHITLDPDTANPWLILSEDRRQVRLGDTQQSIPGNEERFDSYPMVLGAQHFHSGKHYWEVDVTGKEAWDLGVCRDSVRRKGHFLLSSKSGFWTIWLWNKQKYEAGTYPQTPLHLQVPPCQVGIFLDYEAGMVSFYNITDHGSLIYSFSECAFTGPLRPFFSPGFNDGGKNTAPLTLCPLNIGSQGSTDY

Experiments:
[1] = molecular target: FLAG-TC2N (tandem C2 domains, nuclear), full-length (human) (UniProt Q8N9U0); assay: co-IP; extracts of TC2N-overexpressing BC cells, IP with anti-Flag antibody and protein A/G agarose beads, 16 h at 4 °C, WB; high glucose condition; normal IgG as negative control
[2] = molecular target: Fatty acid synthase (FASN) (human (endogenous in breast carcinoma cell lines)) (UniProt P49327); assay: co-IP; extracts of BC cells (M231) with control, FLAG-TC2N full-length or truncation lentivirus, IP with anti-FASN antibody and protein A/G agarose beads, 16 h at 4 °C, WB; high glucose; in one panel cells treated with 20 µM MG132 for 24 h; normal IgG as negative control

| Substance | binding [1] | binding [2] |
| --- | --- | --- |
| importinβ (from UniProt Q14974 1-876) | binds | – |
| Tripartite motif containing 21 (TRIM21) (from UniProt P19474 1-475) (enzyme) | binds | binds |
| FLAG-TC2N (tandem C2 domains, nuclear), full-length (from UniProt Q8N9U0 1-490) | – | binds |
